Data on one substance can be found in PMC4712026.

Protein sequences, listed by entry. Tags and fused reporters are not part of them.
UniProt Q9JIF0: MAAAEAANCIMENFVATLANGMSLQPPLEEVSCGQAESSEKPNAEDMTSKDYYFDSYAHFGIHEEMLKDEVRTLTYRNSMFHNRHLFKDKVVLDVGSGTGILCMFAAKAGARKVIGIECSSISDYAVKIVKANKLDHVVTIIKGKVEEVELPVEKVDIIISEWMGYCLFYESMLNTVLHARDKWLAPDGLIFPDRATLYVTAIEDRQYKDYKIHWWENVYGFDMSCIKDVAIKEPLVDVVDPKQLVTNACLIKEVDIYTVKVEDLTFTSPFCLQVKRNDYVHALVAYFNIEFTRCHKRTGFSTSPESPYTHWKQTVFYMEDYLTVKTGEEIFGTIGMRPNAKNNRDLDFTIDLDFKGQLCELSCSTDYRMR

The target of the test is T1, GST-GAS7 WW domain (UniProt O60861).
T1 sequence: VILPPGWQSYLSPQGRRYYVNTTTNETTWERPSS
The test is described as follows: pull-down; in vitro GST pull-down with GST-GAS7 WW domain as bait (Figure 1B).

No constants are given. Whether binding was seen depends on the method and setting. In cells and extracts the contact can be indirect. Some binding calls cover weakened binding; strength is not graded here. Tags and fused reporters may be left off the sequences shown.

Take “Prmt1 (input of the GST pull-down) (from UniProt Q9JIF0 1-371) (enzyme)”: the binding entry is given as “binds”.
